Source: US20250361297A1, “ANTI- SIGLEC-15 BINDING MOLECULES AND METHODS OF USE” (ADAPTAM THERAPEUTICS, S.L., priority 2024, published 2025)
Results are given in words; binding and its absence hold for the method and conditions named. Some binding calls cover weakened binding; strength is not graded here.

Columns and labels:
[1] = molecular target: T1, recombinant Siglec-15 (bispecific antibody affinity assay) (Homo sapiens (Human)) (UniProt Q6ZMC9); experiment: BLI on recombinant Siglec-15
T1 sequence: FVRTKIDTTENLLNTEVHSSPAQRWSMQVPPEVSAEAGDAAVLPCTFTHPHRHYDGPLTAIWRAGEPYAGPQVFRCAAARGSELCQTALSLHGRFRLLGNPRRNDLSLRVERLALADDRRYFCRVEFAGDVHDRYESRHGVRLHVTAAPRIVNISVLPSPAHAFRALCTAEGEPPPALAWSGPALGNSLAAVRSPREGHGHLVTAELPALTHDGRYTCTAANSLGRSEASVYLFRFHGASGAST

[2] = molecular target: truncated human Siglec-15 comprising only domain 2 (D2), expressed on HEK293T cells (human) (UniProt Q6ZMC9); experiment: flow cytometry, HEK 293T cells expressing only domain 2 of Siglec-15 (S15 D2) beside CTRL cells; 2ry = secondary antibody alone
[3] = molecular target: recombinant human Siglec-15-his protein (Bonopusbio) (human) (UniProt Q6ZMC9); experiment: ELISA, plate coated with recombinant human Siglec-15-his, antibody titrated up to about 200 nM, OD 450 nm
[4] = molecular target: truncated human Siglec-15 comprising only domain 2 (D2), expressed on HEK293T cells (human) (UniProt Q6ZMC9); experiment: flow cytometry (gMFI) on HEK 293T cells expressing only D2
[5] = molecular target: truncated human Siglec-15 comprising only domain 2 (D2), expressed on HEK293T cells (human) (UniProt Q6ZMC9); experiment: flow cytometry, HEK 293T cells expressing only domain 2 of Siglec-15, fold change of ab+ cells relative to 2ry control
[6] = molecular target: recombinant human Siglec-15-his protein (Bonopusbio) (human) (UniProt Q6ZMC9); experiment: ELISA, plate coated with 2 µg/ml human Siglec-15-his, antibody 3-fold dilutions from 198 nM, HRP goat anti-human IgG Fc, OD 450 nm
[7] = molecular target: recombinant human Siglec-15-his protein (Bonopusbio) (human) (UniProt Q6ZMC9); experiment: ELISA on coated recombinant human Siglec-15-his
[8] = molecular target: truncated human Siglec-15 comprising only domain 2 (D2), expressed on HEK293T cells (human) (UniProt Q6ZMC9); experiment: flow cytometry on HEK 293T cells expressing only D2
[9] = molecular target: truncated human Siglec-15 comprising only domain 2 (D2), expressed on HEK293T cells (human) (UniProt Q6ZMC9); experiment: flow cytometry (fold change of mAb positive cells) on HEK 293T cells expressing only D2
[10] = molecular target: recombinant human Siglec-15-his protein (Bonopusbio) (human) (UniProt Q6ZMC9); experiment: ELISA, plate coated with 100 ng per well recombinant human Siglec-15 (supplier not named in Example 3), HRP anti-mouse IgG, OD450
[11] = molecular target: human Siglec-15, full length, expressed on cells (human) (UniProt Q6ZMC9); experiment: flow cytometry, HEK293T cells expressing human Siglec-15, anti-human IgG-PE, MFI
[12] = molecular target: recombinant human Siglec-15-his protein (Bonopusbio) (human) (UniProt Q6ZMC9); experiment: ELISA on coated recombinant human Siglec-15-his (FIG. 15A)
[13] = molecular target: recombinant human Siglec-15-his protein (Bonopusbio) (human) (UniProt Q6ZMC9); experiment: ELISA, plate coated with 2 µg/ml human Siglec-15-his, antibody 3-fold dilutions from 198 nM, HRP goat anti-human IgG Fc, OD450

Measured: binding

B1: S15B1 (antibody, V domains shown)
VH: QVQLQQSGPELVKPGASVKISCKASGYAFSSSWMNWVKQRPGKGLEWIGRIYPGHGETNYNGKFKDKATVTADKSSSTTYMQLSSLTSEDSAVYFCARVDNSDPYYFDYWGQGTTLTVSS
VL: DIVLTQSPASLAVSLGQRATISCRASKSVSTSGYSYMHWYQQKPGQPPKLLIYLASNLESGVPARFSGSGSGTDFTLNIHPVEEEDAATYYCQHGRELPFTFGSGTKLEIK
not listed: [11] | [12] | [13]
binds: all other assays above

B2: S15B1-VH3 + VL2 (antibody, V domains shown)
VH: QVQLVQSGAEVKKPGASVKVSCKASGYAFSSSWMNWVKQAPGQGLEWIGRIYPGHGETNYNGKFKDRATMTADTSTSTVYMELSSLRSEDTAVYFCARVDNSDPYYFDYWGQGTTVTVSS
VL: DIVLTQSPASLAVSPGQRATITCRASKSVSTSGYSYMHWYQQKPGQPPKLLIYLASNLESGVPARFSGSGSGTDFTLTINPVEAEDTATYYCQHGRELPFTFGGGTKLEIK
binds: [7]

B3: S15B1-VH2 + VL2 (antibody, V domains shown)
VH: QVQLVQSGAEVKKPGASVKVSCKASGYAFSSSWMNWVRQAPGQGLEWIGRIYPGHGETNYNGKFKDRVTMTADTSTSTVYMELSSLRSEDTAVYFCARVDNSDPYYFDYWGQGTTVTVSS
VL: DIVLTQSPASLAVSPGQRATITCRASKSVSTSGYSYMHWYQQKPGQPPKLLIYLASNLESGVPARFSGSGSGTDFTLTINPVEAEDTATYYCQHGRELPFTFGGGTKLEIK
binds: [3] | [11] | [7]

B4: S15B1-VH3 + VL1 (antibody, V domains shown)
VH: QVQLVQSGAEVKKPGASVKVSCKASGYAFSSSWMNWVKQAPGQGLEWIGRIYPGHGETNYNGKFKDRATMTADTSTSTVYMELSSLRSEDTAVYFCARVDNSDPYYFDYWGQGTTVTVSS
VL: DIVLTQSPASLAVSPGQRATITCRASKSVSTSGYSYMHWYQQKPGQPPKLLIYLASNLESGVPARFSGSGSGTDFTLTINPVEAEDTANYYCQHGRELPFTFGGGTKLEIK
binds: [3] | [7]

B5: ZLA-1243-E01 (antibody, V domains shown)
VH: QVQLVQSGGGLVQPGRSLRLSCAASGFTFDDYAMHWVRQAPGKGLEWVSGISWNSGSIGYADSVKGRFTISRDNAKNSLYLQMNSLRAEDTALYYCAKGLWPSYDLDAFDIWGQGTMVTVSS
VL: QSALTQPASVSGSPGQSITLSCTGTSSDVGAYNFVSWYQQHPGTAPKLMIYEVSNRPSGVSDRFSGSKSGNTASLTISGLQAEDEADYYCSSYTSTIPPFVFGTGTKVTVL
binds: [12] | [13]
